# The source gives many values for each of these; only a part stands here.
# Tested on: colon gene expression
# Assay: RNA-Seq of colonic tissue of germ-free mice treated with 50 mg/kg/d N-methylserotonin
# Type: in vivo, germ-free C57BL/6J mice
# Settings: colon
structure (smiles),measurement,setting,value
CNCCc1c[nH]c2ccc(O)cc12 [N-methylserotonin],log2 fold-change,gene Epsti1,−0.33
same,log2 fold-change,gene Erap1,−0.34
same,log2 fold-change,gene Eri1,−0.33
same,log2 fold-change,gene Esr1,1.09
same,log2 fold-change,gene Esyt3,3.43
same,log2 fold-change,gene Etfdh,−0.26
same,log2 fold-change,gene Eya2,2.05
same,log2 fold-change,gene Fads2,−0.51
same,log2 fold-change,gene Fam53c,0.39
same,log2 fold-change,gene Fam111a,−0.47
same,log2 fold-change,gene Fam118a,0.38
same,log2 fold-change,gene Fam189a2,0.32
same,log2 fold-change,gene Fam234b,1.49
same,log2 fold-change,gene Fbln2,0.35
same,log2 fold-change,gene Fchsd1,0.90
same,log2 fold-change,gene Fermt1,−0.30
same,log2 fold-change,gene Fgfr1,0.39
same,log2 fold-change,gene Fkbp2,0.56
same,log2 fold-change,gene Fmo4,−0.63
same,log2 fold-change,gene Fmod,1.91
same,log2 fold-change,gene Fnbp1,0.46
same,log2 fold-change,gene Folr1,2.49
same,log2 fold-change,gene Fosb,−1.42
same,log2 fold-change,gene Frem1,0.80
same,log2 fold-change,gene Fus,0.57
same,log2 fold-change,gene Galnt1,−0.29
same,log2 fold-change,gene Galnt3,−0.36
same,log2 fold-change,gene Gata2,5.30
same,log2 fold-change,gene Gata3,1.59
same,log2 fold-change,gene Gatm,−0.68
same,log2 fold-change,gene Gbp2,−0.58
same,log2 fold-change,gene Gcnt1,−0.47
same,log2 fold-change,gene Gdpd1,−0.35
same,log2 fold-change,gene Gfm1,−0.30
same,log2 fold-change,gene Ggh,−0.80
same,log2 fold-change,gene Glb1l2,1.79
same,log2 fold-change,gene Glb1l3,10.56
same,log2 fold-change,gene Glis3,0.51
same,log2 fold-change,gene Gm5431,−1.03
same,log2 fold-change,gene Gm5485,−0.73
same,log2 fold-change,gene Gm9926,−0.48
same,log2 fold-change,gene Gm24119,−1.43
same,log2 fold-change,gene Gm25395,−0.77
same,log2 fold-change,gene Gna14,−0.70
same,log2 fold-change,gene Gnmt,3.61
same,log2 fold-change,gene Golm1,−0.32
same,log2 fold-change,gene Gpr146,0.73
same,log2 fold-change,gene Gprin3,−0.38
same,log2 fold-change,gene Grhl1,1.31
same,log2 fold-change,gene Grk3,0.37
same,log2 fold-change,gene Gsdmc2,−0.47
same,log2 fold-change,gene Gsdmc3,−0.80
same,log2 fold-change,gene Gsdmc4,−0.66
same,log2 fold-change,gene Gsto1,−0.31
same,log2 fold-change,gene Gstp2,−0.58
same,log2 fold-change,gene Gxylt2,1.98
same,log2 fold-change,gene H1f2,−0.32
same,log2 fold-change,gene H1f3,−0.45
same,log2 fold-change,gene H1f4,−0.36
same,log2 fold-change,gene H2bc8,−0.45
same,log2 fold-change,gene H2bc14,−0.69
same,log2 fold-change,gene H3c1,−0.50
same,log2 fold-change,gene H3c2,−0.50
same,log2 fold-change,gene H3c4,−0.69
same,log2 fold-change,gene H4c6,−0.56
same,log2 fold-change,gene H4c14,−0.43
same,log2 fold-change,gene Hadha,−0.30
same,log2 fold-change,gene Hao2,−0.52
same,log2 fold-change,gene Hapln4,3.45
same,log2 fold-change,gene Hdgfl2,0.36
same,log2 fold-change,gene Heph,−0.27
same,log2 fold-change,gene Hexa,−0.26
same,log2 fold-change,gene Hexb,−0.82
same,log2 fold-change,gene Hlf,1.26
same,log2 fold-change,gene Hmcn1,−0.39
same,log2 fold-change,gene Hmcn2,0.39
same,log2 fold-change,gene Hsd17b12,−0.33
same,log2 fold-change,gene Hsp90aa1,−0.38
same,log2 fold-change,gene Hspa1a,−0.75
same,log2 fold-change,gene Hspa8,−0.32
same,log2 fold-change,gene Hspb7,0.62
same,log2 fold-change,gene Ifi30,−0.28
same,log2 fold-change,gene Ifih1,−0.29
same,log2 fold-change,gene Ifit1,−0.65
same,log2 fold-change,gene Ifit1bl1,−0.82
same,log2 fold-change,gene Igdcc4,0.39
same,log2 fold-change,gene Igf1r,0.45
same,log2 fold-change,gene Igfbp2,0.75
same,log2 fold-change,gene Igfbp6,0.81
same,log2 fold-change,gene Ighj1,−1.59
same,log2 fold-change,gene Ighv1-78,−0.11
same,log2 fold-change,gene Igkv3-7,−0.12
same,log2 fold-change,gene Igkv4-59,−1.18
same,log2 fold-change,gene Igkv5-48,−0.03
same,log2 fold-change,gene Igkv6-17,−2.05
same,log2 fold-change,gene Igkv9-120,−0.05
same,log2 fold-change,gene Igkv14-100,−0.05
same,log2 fold-change,gene Igkv15-103,−0.07
same,log2 fold-change,gene Igkv16-104,−0.04
same,log2 fold-change,gene Il18,−0.86
same,log2 fold-change,gene Inpp4b,−0.52
same,log2 fold-change,gene Insl5,−0.71
same,log2 fold-change,gene Ipo13,0.44
same,log2 fold-change,gene Iqsec2,0.41
same,log2 fold-change,gene Itgb6,−0.29
same,log2 fold-change,gene Itih2,−0.84
same,log2 fold-change,gene Itih5,−0.43
same,log2 fold-change,gene Itpkb,0.31
same,log2 fold-change,gene Itpripl1,0.78
same,log2 fold-change,gene Iyd,−0.45
same,log2 fold-change,gene Kcnh3,0.47
same,log2 fold-change,gene Kif2c,−0.47
same,log2 fold-change,gene Kif4,−0.54
same,log2 fold-change,gene Kif11,−0.37
same,log2 fold-change,gene Kitl,−0.36
same,log2 fold-change,gene Klb,−0.57
same,log2 fold-change,gene Klf15,1.38
same,log2 fold-change,gene Klhl21,0.38
same,log2 fold-change,gene Klk1,−0.44
same,log2 fold-change,gene Knl1,−0.42
same,log2 fold-change,gene Kpna2,−0.30
same,log2 fold-change,gene Krt5,6.22
same,log2 fold-change,gene Lama3,−0.38
same,log2 fold-change,gene Lama5,0.51
same,log2 fold-change,gene Lamb2,0.47
same,log2 fold-change,gene Laptm4b,−0.36
same,log2 fold-change,gene Lbr,−0.29
same,log2 fold-change,gene Lgr4,−0.29
same,log2 fold-change,gene Lmbrd1,−0.25
same,log2 fold-change,gene Lmcd1,1.45
same,log2 fold-change,gene Lmo3,2.43
same,log2 fold-change,gene Lmod1,0.30
same,log2 fold-change,gene Lpin1,0.43
same,log2 fold-change,gene Lrrc19,−0.42
same,log2 fold-change,gene Lrrn1,1.45
same,log2 fold-change,gene Ltbp3,0.48
same,log2 fold-change,gene Ltbp4,0.37
same,log2 fold-change,gene Ly6a,−0.72
same,log2 fold-change,gene Ly6g2,−0.85
same,log2 fold-change,gene Ly75,−0.46
same,log2 fold-change,gene Lypd8,−0.64
same,log2 fold-change,gene Maged1,0.34
same,log2 fold-change,gene Mal,0.85
same,log2 fold-change,gene Malat1,0.24
same,log2 fold-change,gene Man1a2,−0.22
same,log2 fold-change,gene Maob,−0.38
same,log2 fold-change,gene Mark1,0.81
same,log2 fold-change,gene Mastl,−0.53
same,log2 fold-change,gene Matn2,0.69
same,log2 fold-change,gene Mboat2,0.45
same,log2 fold-change,gene Mcm5,−0.38
same,log2 fold-change,gene Mcm6,−0.44
same,log2 fold-change,gene Meis1,0.33
same,log2 fold-change,gene Melk,−0.41
same,log2 fold-change,gene Mep1b,−0.57
same,log2 fold-change,gene Mest,0.81
same,log2 fold-change,gene Mgat4a,−0.46
same,log2 fold-change,gene Micall2,0.53
same,log2 fold-change,gene Mier2,0.47
same,log2 fold-change,gene Mlph,0.29
same,log2 fold-change,gene Mmp7,4.17
same,log2 fold-change,gene Mnt,0.76

# Source: patent US20250345370A1, “MICROBIAL LIBERATION OF N-METHYLSEROTONIN FROM ORANGE FIBER” (Washington University, priority 2022, published 2025)
